{
  "source": "PubChem BioAssay AID224",
  "about": "(DTP/NCI, 2004)",
  "tested_on": "P335 leukemia ip, BDF1 mice, survival T/C %",
  "experiment": "NCI In Vivo Anticancer Drug Screen. Data for tumor model P335 Leukemia (intraperitoneal) in B6D2F1 (BDF1) mice",
  "settings": "T/C endpoint: mean survival time, schedule: Q01DX Z (ip), higher T/C = longer survival",
  "protocol": "The antitumor activity of compounds was measured in mice bearing transplantable tumors. Survival or tumor size were measured and the results are expressed as the measurement made in the treated group (T) divided by the measurement made in the vehicle treated control group (C). The tumor model used in this assay is P335 Leukemia (intraperitoneal) in B6D2F1 (BDF1) mice",
  "note": "The list does not hold the whole screen: it gathers some chemical classes. Other doses and runs of a compound may be missing. T/C is the treated group as % of the vehicle group. Some doses have a count of surviving animals in place of a T/C: the source files T/C as zero there, which appears to mark a toxic dose or a test without result, not a measured value. Some survivor counts are full or nearly so, which does not show that the dose was tolerated: the source hardly ever lists a survival T/C far under the control, and the zero likely stands for such cases as well. Counts of survivors are from the toxicity check (mostly the fifth day) where no day follows; animals may have died later. Schedule codes are those of the source, taken here to give the interval after Q, in days (D) or hours (H), and the number of doses after X. Some schedules carry Z or #; the key to these is not given. For survival time, this PubChem deposit counts one and a half times the control or more as active, and values a quarter to a half above the control carry no call in these data; other NCI protocols may use other cut-offs. Some doses were run more than once; their values stand side by side, smallest first.",
  "data": [
    {"molecule": "CN(N=O)C(=N)N[N+](=O)[O-]", "values": [
      {"measurement": "survivor count", "setting": "dose: 9.4 mg/kg/injection, vehicle: methylcellulose (MC)", "result": "6 of 6"},
      {"measurement": "survivor count", "setting": "dose: 18.75 mg/kg/injection, vehicle: methylcellulose (MC)", "result": "6 of 6"},
      {"measurement": "T/C", "setting": "dose: 37.5 mg/kg/injection, vehicle: methylcellulose (MC)", "result": "101 % of control"},
      {"measurement": "survivor count", "setting": "dose: 75.0 mg/kg/injection, vehicle: methylcellulose (MC)", "result": "6 of 6"}
    ]},
    {"molecule": "Cc1[nH]c(=O)[nH]c(=O)c1N(CCCl)CCCl", "values": [
      {"measurement": "T/C", "setting": "dose: 0.25 mg/kg/injection, vehicle: carboxymethylcellulose (CMC)", "result": "102 and 119 % of control"},
      {"measurement": "T/C", "setting": "dose: 0.5 mg/kg/injection, vehicle: carboxymethylcellulose (CMC)", "result": "90 and 108 % of control"},
      {"measurement": "T/C", "setting": "dose: 1.0 mg/kg/injection, vehicle: carboxymethylcellulose (CMC)", "result": "116, 120, 145 % of control"},
      {"measurement": "T/C", "setting": "dose: 2.0 mg/kg/injection, vehicle: carboxymethylcellulose (CMC)", "result": "92, 146, 161 % of control"},
      {"measurement": "survivor count", "setting": "dose: 4.0 mg/kg/injection, vehicle: carboxymethylcellulose (CMC)", "result": "5 of 6"},
      {"measurement": "survivor count", "setting": "dose: 8.0 mg/kg/injection, vehicle: carboxymethylcellulose (CMC)", "result": "4 of 6"}
    ]},
    {"molecule": "CC[C@H](C)[C@@H]1NC(=O)/C(=C(\\C)O)C1=O", "values": [
      {"measurement": "survivor count", "setting": "dose: 25.0 mg/kg/injection, vehicle: water", "result": "6 of 6"},
      {"measurement": "survivor count", "setting": "dose: 50.0 mg/kg/injection, vehicle: water", "result": "4 of 6"},
      {"measurement": "survivor count", "setting": "dose: 100.0 mg/kg/injection, vehicle: water", "result": "1 of 6"},
      {"measurement": "survivor count", "setting": "dose: 200.0 mg/kg/injection, vehicle: water", "result": "0 of 6"}
    ]}
  ]
}
